Test results reported in article PMC5807360.
These are yes or no findings as the source states them, for the method shown. Binding seen in cells or lysates may run through a third protein.

Sequences of proteins named here, by UniProt entry; tags and fusion partners are left off. Residues count along the entry.
UniProt O48849, residues 23-890: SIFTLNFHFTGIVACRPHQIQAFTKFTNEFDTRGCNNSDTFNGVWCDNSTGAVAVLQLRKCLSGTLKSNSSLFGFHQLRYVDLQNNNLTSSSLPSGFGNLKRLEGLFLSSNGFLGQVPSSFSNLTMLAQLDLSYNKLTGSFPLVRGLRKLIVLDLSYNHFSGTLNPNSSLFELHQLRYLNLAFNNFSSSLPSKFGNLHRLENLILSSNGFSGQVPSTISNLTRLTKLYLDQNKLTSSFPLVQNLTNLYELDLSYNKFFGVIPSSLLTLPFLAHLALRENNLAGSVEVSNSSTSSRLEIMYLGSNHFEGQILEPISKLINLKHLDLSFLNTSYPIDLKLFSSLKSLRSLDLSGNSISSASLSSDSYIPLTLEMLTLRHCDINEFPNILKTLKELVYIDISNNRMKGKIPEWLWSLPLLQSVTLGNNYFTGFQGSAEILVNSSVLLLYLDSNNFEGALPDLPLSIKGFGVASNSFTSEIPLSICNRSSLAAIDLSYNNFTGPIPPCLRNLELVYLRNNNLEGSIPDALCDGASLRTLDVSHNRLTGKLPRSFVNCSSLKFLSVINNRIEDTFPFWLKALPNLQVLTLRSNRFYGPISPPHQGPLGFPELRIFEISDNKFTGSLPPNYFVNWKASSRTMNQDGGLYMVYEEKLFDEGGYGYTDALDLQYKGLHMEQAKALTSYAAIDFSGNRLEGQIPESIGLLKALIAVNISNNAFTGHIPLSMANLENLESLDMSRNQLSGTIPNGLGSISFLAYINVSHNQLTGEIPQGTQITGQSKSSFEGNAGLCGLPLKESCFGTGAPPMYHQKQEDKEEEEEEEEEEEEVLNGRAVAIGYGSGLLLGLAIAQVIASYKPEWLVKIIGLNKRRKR

Target: RLP23-GFP (Arabidopsis RLP23, GFP-tagged) (Arabidopsis thaliana) (UniProt O48849)
Experiment: co-IP; proteins co-expressed in N. benthamiana leaves, isolated at 2 dai; total protein extract (150-200 mM NaCl, 50 mM Tris-HCl pH 7.5, 10 mM EDTA, 1.0% NP-40); GFP-trap A beads, 4 °C, 2 h; blots with anti-GFP and anti-HA

With “XEG1-HA (Phytophthora sojae glycoside hydrolase 12 protein XEG1, C-terminal HA tag) (from UniProt G4ZHR2 20-241)” the binding was “no binding”.
